# Test results as given in publication PMC4799877.
# Chains of the proteins cited; added tags and fusions are not shown. Lines headed by an entry give the natural chain unless they say otherwise; changes in a name come on top.
# UniProt P43694: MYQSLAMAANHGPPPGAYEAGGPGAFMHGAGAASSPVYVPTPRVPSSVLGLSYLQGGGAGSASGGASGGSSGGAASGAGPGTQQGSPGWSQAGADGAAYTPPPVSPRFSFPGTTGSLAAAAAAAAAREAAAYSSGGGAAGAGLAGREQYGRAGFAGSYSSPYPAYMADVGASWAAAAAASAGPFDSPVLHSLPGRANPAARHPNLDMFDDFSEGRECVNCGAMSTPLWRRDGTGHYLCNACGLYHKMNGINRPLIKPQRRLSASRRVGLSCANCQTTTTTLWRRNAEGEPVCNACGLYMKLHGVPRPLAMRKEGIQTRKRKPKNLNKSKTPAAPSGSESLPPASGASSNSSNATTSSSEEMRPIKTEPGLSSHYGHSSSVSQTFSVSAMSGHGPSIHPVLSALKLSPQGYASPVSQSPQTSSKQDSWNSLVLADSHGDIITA
# UniProt Q9BWX5: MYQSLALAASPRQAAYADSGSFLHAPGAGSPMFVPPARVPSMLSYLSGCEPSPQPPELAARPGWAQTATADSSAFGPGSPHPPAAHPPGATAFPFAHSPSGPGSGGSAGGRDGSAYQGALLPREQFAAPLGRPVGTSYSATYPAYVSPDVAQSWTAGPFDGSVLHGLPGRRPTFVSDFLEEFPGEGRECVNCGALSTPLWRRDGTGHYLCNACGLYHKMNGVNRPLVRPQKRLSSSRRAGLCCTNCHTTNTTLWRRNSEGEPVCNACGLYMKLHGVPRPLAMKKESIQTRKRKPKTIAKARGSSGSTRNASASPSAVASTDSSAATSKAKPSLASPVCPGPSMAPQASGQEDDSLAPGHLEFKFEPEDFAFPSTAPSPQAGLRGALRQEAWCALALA
# Results are given in words; binding and its absence hold for the method and conditions named. Binding seen in cells or lysates may run through a third protein. Some binding calls cover weakened binding; strength is not graded here. For some of these results: Sequences can lack the tags named with a protein.
# B1: NFATC1 (Flag-tagged) (protein, UniProt O95644 1-943)
# chain: MPSTSFPVPSKFPLGPAAAVFGRGETLGPAPRAGGTMKSAEEEHYGYASSNVSPALPLPTAHSTLPAPCHNLQTSTPGIIPPADHPSGYGAALDGGPAGYFLSSGHTRPDGAPALESPRIEITSCLGLYHNNNQFFHDVEVEDVLPSSKRSPSTATLSLPSLEAYRDPSCLSPASSLSSRSCNSEASSYESNYSYPYASPQTSPWQSPCVSPKTTDPEEGFPRGLGACTLLGSPRHSPSTSPRASVTEESWLGARSSRPASPCNKRKYSLNGRQPPYSPHHSPTPSPHGSPRVSVTDDSWLGNTTQYTSSAIVAAINALTTDSSLDLGDGVPVKSRKTTLEQPPSVALKVEPVGEDLGSPPPPADFAPEDYSSFQHIRKGGFCDQYLAVPQHPYQWAKPKPLSPTSYMSPTLPALDWQLPSHSGPYELRIEVQPKSHHRAHYETEGSRGAVKASAGGHPIVQLHGYLENEPLMLQLFIGTADDRLLRPHAFYQVHRITGKTVSTTSHEAILSNTKVLEIPLLPENSMRAVIDCAGILKLRNSDIELRKGETDIGRKNTRVRLVFRVHVPQPSGRTLSLQVASNPIECSQRSAQELPLVEKQSTDSYPVVGGKKMVLSGHNFLQDSKVIFVEKAPDGHHVWEMEAKTDRDLCKPNSLVVEIPPFRNQRITSPVHVSFYVCNGKRKRSQYQRFTYLPANVPIIKTEPTDDYEPAPTCGPVSQGLSPLPRPYYSQQLAMPPDPSSCLVAGFPPCPQRSTLMPAAPGVSPKLHDLSPAAYTKGVASPGHCHLGLPQPAGEAPAVQDVPRPVATHPGSPGQPPPALLPQQVSAPPSSSCPPGLEHSLCPSSPSPPLPPATQEPTCLQPCSPACPPATGRPQHLPSTVRRDESPTAGPRLLPEVHEDGSPNLAPIPVTVKREPEELDQLYLDDVNEIIRNDLSSTSTHS
# Columns and labels:
# Flag-tagged GATA4 = Flag-tagged GATA4 (UniProt P43694); assay: co-IP; nuclear extracts of transfected HEK293 cells; legend: immunoprecipitated with anti-Flag (GATA4), GATA5 detected with anti-HA, membrane stripped and reprobed with anti-Flag; methods: antibody on Dynabeads Protein G, 2 h at RT, three washes with PBS 1X
# [1] = target: HA-tagged GATA5 (wild type) (human) (UniProt Q9BWX5); assay: co-IP; data not shown; methods: anti-HA antibody on Dynabeads Protein G, mixture of proteins incubated 2 h at RT, washed three times with PBS 1X, blot with anti-Flag, quantified by Image J
# [2] = target: HA-tagged GATA5 p.Y142H (human) (UniProt Q9BWX5); assay: as above
Molecule,binding (Flag-tagged GATA4),binding [1],binding [2]
HA-tagged GATA5 (wild type) (from UniProt Q9BWX5 1-397),binds,–,–
HA-tagged GATA5 p.Y142H (from UniProt Q9BWX5 1-397),binds,–,–
B1,–,binds,binds
